These are yes or no findings as the source states them, for the method shown. Binding seen in cells or lysates may run through a third protein. A yes stands for co-enrichment or nearness to the bait. Other partners may have been found. Sequences can lack the tags named with a protein.
T1: Flag-tagged USP36 (UniProt Q9P275)
T1 sequence: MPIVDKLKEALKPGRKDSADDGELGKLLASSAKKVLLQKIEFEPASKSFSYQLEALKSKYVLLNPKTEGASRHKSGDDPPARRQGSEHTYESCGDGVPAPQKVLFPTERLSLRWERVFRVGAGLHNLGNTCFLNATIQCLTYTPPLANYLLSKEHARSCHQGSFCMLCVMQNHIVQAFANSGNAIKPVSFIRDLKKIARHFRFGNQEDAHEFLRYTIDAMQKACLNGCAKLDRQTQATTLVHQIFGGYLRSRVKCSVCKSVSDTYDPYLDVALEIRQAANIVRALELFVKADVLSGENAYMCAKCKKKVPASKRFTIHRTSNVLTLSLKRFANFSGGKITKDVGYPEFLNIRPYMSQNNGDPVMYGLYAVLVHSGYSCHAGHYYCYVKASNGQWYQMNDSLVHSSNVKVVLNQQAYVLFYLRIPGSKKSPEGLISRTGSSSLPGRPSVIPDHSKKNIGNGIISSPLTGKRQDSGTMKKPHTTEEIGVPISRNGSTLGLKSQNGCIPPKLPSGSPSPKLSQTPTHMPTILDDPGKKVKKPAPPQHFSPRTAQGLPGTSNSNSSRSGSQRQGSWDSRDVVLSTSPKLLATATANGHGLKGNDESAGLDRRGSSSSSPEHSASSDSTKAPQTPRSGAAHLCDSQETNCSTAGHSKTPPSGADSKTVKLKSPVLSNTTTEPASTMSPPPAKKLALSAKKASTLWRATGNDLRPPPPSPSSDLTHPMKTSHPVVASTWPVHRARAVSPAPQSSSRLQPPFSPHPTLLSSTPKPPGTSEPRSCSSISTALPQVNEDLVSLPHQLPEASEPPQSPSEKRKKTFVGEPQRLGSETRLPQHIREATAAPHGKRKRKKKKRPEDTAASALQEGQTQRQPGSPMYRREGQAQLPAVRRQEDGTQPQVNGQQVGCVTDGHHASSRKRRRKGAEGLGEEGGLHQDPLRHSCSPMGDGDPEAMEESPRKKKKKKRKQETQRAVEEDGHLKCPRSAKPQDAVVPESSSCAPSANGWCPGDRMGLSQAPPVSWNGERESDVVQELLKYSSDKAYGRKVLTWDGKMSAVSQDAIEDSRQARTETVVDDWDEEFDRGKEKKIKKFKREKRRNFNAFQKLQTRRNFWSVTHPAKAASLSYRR


Target: T1, Flag-tagged USP36
Assay: affinity purification with mass spectrometry; immunoprecipitates from control 293 and 293-Flag-USP36 cells by anti-Flag antibody, mass spectrometry

binding | Binder
binds | endogenous Nol9 (enzyme, UniProt Q5SY16 1-702) MADSGLLLKRGSCRSTWLRVRKARPQLILSRRPRRRLGSLRWCGRRRLRWRLLQAQASGVDWREGARQVSRAAAARRPNTATPSPIPSPTPASEPESEPELESASSCHRPLLIPPVRPVGPGRALLLLPVEQGFTFSGICRVTCLYGQVQVFGFTISQGQPAQDIFSVYTHSCLSIHALHYSQPEKSKKELKREARNLLKSHLNLDDRRWSMQNFSPQCSIVLLEHLKTATVNFITSYPGSSYIFVQESPTPQIKPEYLALRSVGIRREKKRKGLQLTESTLSALEELVNVSCEEVDGCPVILVCGSQDVGKSTFNRYLINHLLNSLPCVDYLECDLGQTEFTPPGCISLLNITEPVLGPPFTHLRTPQKMVYYGKPSCKNNYENYIDIVKYVFSAYKRESPLIVNTMGWVSDQGLLLLIDLIRLLSPSHVVQFRSDHSKYMPDLTPQYVDDMDGLYTKSKTKMRNRRFRLAAFADALEFADEEKESPVEFTGHKLIGVYTDFAFRITPRNRESHNKILRDLSILSYLSQLQPPMPKPLSPLHSLTPYQVPFNAVALRITHSDVAPTHILYAVNASWVGLCKIQDDVRGYTNGPILLAQTPICDCLGFGICRGIDMEKRLYHILTPVPPEELRTVNCLLVGAIAIPHCVLKCQRGIEGTVPYVTTDYNFKLPGASEKIGAREPEEAHKEKPYRRPKFCRKMK
binds | endogenous Las1L (enzyme, UniProt Q9Y4W2 1-734) MSWESGAGPGLGSQGMDLVWSAWYGKCVKGKGSLPLSAHGIVVAWLSRAEWDQVTVYLFCDDHKLQRYALNRITVWRSRSGNELPLAVASTADLIRCKLLDVTGGLGTDELRLLYGMALVRFVNLISERKTKFAKVPLKCLAQEVNIPDWIVDLRHELTHKKMPHINDCRRGCYFVLDWLQKTYWCRQLENSLRETWELEEFREGIEEEDQEEDKNIVVDDITEQKPEPQDDGKSTESDVKADGDSKGSEEVDSHCKKALSHKELYERARELLVSYEEEQFTVLEKFRYLPKAIKAWNNPSPRVECVLAELKGVTCENREAVLDAFLDDGFLVPTFEQLAALQIEYEDGQTEVQRGEGTDPKSHKNVDLNDVLVPKPFSQFWQPLLRGLHSQNFTQALLERMLSELPALGISGIRPTYILRWTVELIVANTKTGRNARRFSAGQWEARRGWRLFNCSASLDWPRMVESCLGSPCWASPQLLRIIFKAMGQGLPDEEQEKLLRICSIYTQSGENSLVQEGSEASPIGKSPYTLDSLYWSVKPASSSFGSEAKAQQQEEQGSVNDVKEEEKEEKEVLPDQVEEEEENDDQEEEEEDEDDEDDEEEDRMEVGPFSTGQESPTAENARLLAQKRGALQGSAWQVSSEDVRWDTFPLGRMPGQTEDPAELMLENYDTMYLLDQPVLEQRLEPSTCKTDTLGLSCGVGSGNCSNSSSSNFEGLLWSQGQLHGLKTGLQLF
